According to the supplement of paper PMC7661543:
Differences between knockout arms are mostly noise.

Tested on: SKBR3
Assay: relative cell number vs DMSO control (72 h) (% of DMSO); higher = less growth inhibition (more cells)
Method: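 QMAP-Seq: a pool of 5 breast cancer cell lines (ZR-75-1, SKBR3, HCC-38, MDA-MB-231, BT-20), each carrying 12 doxycycline-inducible Cas9 sgRNA perturbations (11 knockouts plus non-targeting sgNT), was treated with compounds for 72 h at four 10-fold doses (10 nM-10 uM or 1 nM-1 uM range). Barcodes were amplified and sequenced, and cell number was interpolated from 293T spike-in standard curves. The result is expressed as % of the median of DMSO wells. Two biological replicates.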

NC(=O)Nc1sc(-c2ccc(F)cc2)cc1C(N)=O [TPCA1]
Settings | relative cell number
sgRNA knockout: sgATF3, 10 nM | 103
sgRNA knockout: sgATF3, 100 nM | 120
sgRNA knockout: sgATF3, 1000 nM | 109
sgRNA knockout: sgATF3, 10000 nM | 70.9
sgRNA knockout: sgATF4, 10 nM | 95.7
sgRNA knockout: sgATF4, 100 nM | 102
sgRNA knockout: sgATF4, 1000 nM | 90
sgRNA knockout: sgATF4, 10000 nM | 67.6
sgRNA knockout: sgATF6, 10 nM | 111
sgRNA knockout: sgATF6, 100 nM | 80.5
sgRNA knockout: sgATF6, 1000 nM | 109
sgRNA knockout: sgATF6, 10000 nM | 66.1
sgRNA knockout: sgATG7, 10 nM | 99.9
sgRNA knockout: sgATG7, 100 nM | 88.6
sgRNA knockout: sgATG7, 1000 nM | 113
sgRNA knockout: sgATG7, 10000 nM | 67.9
sgRNA knockout: sgERN1, 10 nM | 110
sgRNA knockout: sgERN1, 100 nM | 120
sgRNA knockout: sgERN1, 1000 nM | 123
sgRNA knockout: sgERN1, 10000 nM | 69.5
sgRNA knockout: sgHSF1, 10 nM | 94.2
sgRNA knockout: sgHSF1, 100 nM | 98.7
sgRNA knockout: sgHSF1, 1000 nM | 104
sgRNA knockout: sgHSF1, 10000 nM | 54.3
sgRNA knockout: sgHSF2, 10 nM | 113
sgRNA knockout: sgHSF2, 100 nM | 92.5
sgRNA knockout: sgHSF2, 1000 nM | 96.4
sgRNA knockout: sgHSF2, 10000 nM | 73.6
sgRNA knockout: sgKEAP1, 10 nM | 99.4
sgRNA knockout: sgKEAP1, 100 nM | 99.1
sgRNA knockout: sgKEAP1, 1000 nM | 93.1
sgRNA knockout: sgKEAP1, 10000 nM | 65.3
sgRNA knockout: sgNFE2L2, 10 nM | 95
sgRNA knockout: sgNFE2L2, 100 nM | 88.9
sgRNA knockout: sgNFE2L2, 1000 nM | 117
sgRNA knockout: sgNFE2L2, 10000 nM | 64.8
sgRNA knockout: sgSLC35F2, 10 nM | 98.4
sgRNA knockout: sgSLC35F2, 100 nM | 92.6
sgRNA knockout: sgSLC35F2, 1000 nM | 104
sgRNA knockout: sgSLC35F2, 10000 nM | 73
sgRNA knockout: sgXBP1, 10 nM | 102
sgRNA knockout: sgXBP1, 100 nM | 113
sgRNA knockout: sgXBP1, 1000 nM | 109
sgRNA knockout: sgXBP1, 10000 nM | 81.6

CC(C)C[C@H](NC(=O)[C@H](CCc1ccccc1)NC(=O)CN1CCOCC1)C(=O)N[C@@H](Cc1ccccc1)C(=O)N[C@@H](CC(C)C)C(=O)[C@@]1(C)CO1 [Carfilzomib]
Settings | relative cell number
sgRNA knockout: sgATF3, 1 nM | 79.6
sgRNA knockout: sgATF3, 10 nM | 33.2
sgRNA knockout: sgATF3, 100 nM | 20.5
sgRNA knockout: sgATF3, 1000 nM | 9.76
sgRNA knockout: sgATF4, 1 nM | 87.3
sgRNA knockout: sgATF4, 10 nM | 35.6
sgRNA knockout: sgATF4, 100 nM | 14.6
sgRNA knockout: sgATF4, 1000 nM | 7.09
sgRNA knockout: sgATF6, 1 nM | 83.3
sgRNA knockout: sgATF6, 10 nM | 27.4
sgRNA knockout: sgATF6, 100 nM | 12
sgRNA knockout: sgATF6, 1000 nM | 4.57
sgRNA knockout: sgATG7, 1 nM | 75.5
sgRNA knockout: sgATG7, 10 nM | 36.8
sgRNA knockout: sgATG7, 100 nM | 15.2
sgRNA knockout: sgATG7, 1000 nM | 8.26
sgRNA knockout: sgERN1, 1 nM | 80.6
sgRNA knockout: sgERN1, 10 nM | 27.2
sgRNA knockout: sgERN1, 100 nM | 14.7
sgRNA knockout: sgERN1, 1000 nM | 5.05
sgRNA knockout: sgHSF1, 1 nM | 83
sgRNA knockout: sgHSF1, 10 nM | 32.8
sgRNA knockout: sgHSF1, 100 nM | 13.2
sgRNA knockout: sgHSF1, 1000 nM | 9.52
sgRNA knockout: sgHSF2, 1 nM | 92.1
sgRNA knockout: sgHSF2, 10 nM | 36.3
sgRNA knockout: sgHSF2, 100 nM | 13.4
sgRNA knockout: sgHSF2, 1000 nM | 5.95
sgRNA knockout: sgKEAP1, 1 nM | 69.1
sgRNA knockout: sgKEAP1, 10 nM | 29.7
sgRNA knockout: sgKEAP1, 100 nM | 10.8
sgRNA knockout: sgKEAP1, 1000 nM | 6.1
sgRNA knockout: sgNFE2L2, 1 nM | 66.9
sgRNA knockout: sgNFE2L2, 10 nM | 32.3
sgRNA knockout: sgNFE2L2, 100 nM | 13.3
sgRNA knockout: sgNFE2L2, 1000 nM | 4.91
sgRNA knockout: sgSLC35F2, 1 nM | 79.1
sgRNA knockout: sgSLC35F2, 10 nM | 43.5
sgRNA knockout: sgSLC35F2, 100 nM | 13.9
sgRNA knockout: sgSLC35F2, 1000 nM | 4.33
sgRNA knockout: sgXBP1, 1 nM | 79.2
sgRNA knockout: sgXBP1, 10 nM | 29.4
sgRNA knockout: sgXBP1, 100 nM | 11.1
sgRNA knockout: sgXBP1, 1000 nM | 8.01
